This is one part of the list.
What was measured:
Assay in all cases: log2 fold change, soluble protein after heating vs DMSO (PISA); higher = thermal stabilisation; K562 lysate, 10 uM; active = over 0.2 and 3.5 SD of the protein, either way, in both replicates (recomputed)
vemurafenib = compound: CCCS(=O)(=O)Nc1ccc(F)c(C(=O)c2c[nH]c3ncc(-c4ccc(Cl)cc4)cc23)c1F [vemurafenib]
How it was run: (§1)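 Log-two fold change in thermal stability relative to solvent controls is reported from duplicates. For each sample, crude K562 extract from dounce-homogenised pellets in PBS pH 7.4 with 1 mM MgCl2, at 1 mg/mL protein, was treated with 10 μM compound for 30 min. Aliquots heated for 3 min across 48°C-58°C were pooled, brought to 0.5% NP-40 at 4°C and cleared at 21,000xg for 90 min. The supernatant was quantified by TMTpro 16plex LC-MS/MS with channel sums equalised.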

Chains of the proteins cited; added tags and fusions are not shown. Lines headed by an entry give the natural chain unless they say otherwise; changes in a name come on top.
UniProt Q9BW60: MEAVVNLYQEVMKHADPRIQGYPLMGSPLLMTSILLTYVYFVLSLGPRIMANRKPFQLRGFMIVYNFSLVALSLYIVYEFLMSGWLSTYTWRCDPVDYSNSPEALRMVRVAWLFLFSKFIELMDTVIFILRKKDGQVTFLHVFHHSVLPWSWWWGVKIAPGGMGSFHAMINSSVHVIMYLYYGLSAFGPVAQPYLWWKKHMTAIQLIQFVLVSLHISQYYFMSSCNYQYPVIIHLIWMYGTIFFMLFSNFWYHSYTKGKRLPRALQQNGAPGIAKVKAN
UniProt Q9NQZ7: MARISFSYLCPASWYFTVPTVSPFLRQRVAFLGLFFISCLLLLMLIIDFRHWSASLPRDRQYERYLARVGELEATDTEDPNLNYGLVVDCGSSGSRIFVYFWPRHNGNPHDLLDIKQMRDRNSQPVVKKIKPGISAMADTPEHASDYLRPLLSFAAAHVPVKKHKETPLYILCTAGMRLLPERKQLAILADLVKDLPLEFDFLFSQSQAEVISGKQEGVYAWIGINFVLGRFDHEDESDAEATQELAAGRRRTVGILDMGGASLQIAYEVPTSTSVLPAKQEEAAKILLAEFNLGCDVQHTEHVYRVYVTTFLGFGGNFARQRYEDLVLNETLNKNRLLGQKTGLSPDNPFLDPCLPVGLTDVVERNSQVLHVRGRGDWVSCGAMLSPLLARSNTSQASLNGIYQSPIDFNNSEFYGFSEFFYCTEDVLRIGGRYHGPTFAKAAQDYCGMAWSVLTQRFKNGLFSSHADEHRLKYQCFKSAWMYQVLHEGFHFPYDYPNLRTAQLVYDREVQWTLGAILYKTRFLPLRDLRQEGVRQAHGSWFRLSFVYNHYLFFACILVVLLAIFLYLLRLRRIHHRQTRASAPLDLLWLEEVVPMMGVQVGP
UniProt P23588, whole entry, looked up: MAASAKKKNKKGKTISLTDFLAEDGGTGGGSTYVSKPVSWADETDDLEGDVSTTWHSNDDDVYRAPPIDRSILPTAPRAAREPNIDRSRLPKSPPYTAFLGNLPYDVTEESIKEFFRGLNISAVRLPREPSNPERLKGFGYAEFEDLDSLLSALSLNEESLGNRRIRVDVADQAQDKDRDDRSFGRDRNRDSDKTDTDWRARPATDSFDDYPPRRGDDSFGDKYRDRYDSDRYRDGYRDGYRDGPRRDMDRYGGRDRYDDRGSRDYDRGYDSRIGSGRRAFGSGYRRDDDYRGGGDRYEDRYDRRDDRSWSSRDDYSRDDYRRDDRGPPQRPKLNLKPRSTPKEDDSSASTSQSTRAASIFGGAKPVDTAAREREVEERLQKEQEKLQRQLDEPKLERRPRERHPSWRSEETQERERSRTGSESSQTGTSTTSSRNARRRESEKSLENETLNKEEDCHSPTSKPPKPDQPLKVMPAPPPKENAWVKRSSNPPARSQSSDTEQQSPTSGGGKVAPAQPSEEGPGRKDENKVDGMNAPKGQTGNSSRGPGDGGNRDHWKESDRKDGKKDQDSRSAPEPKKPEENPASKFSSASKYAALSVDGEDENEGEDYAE
UniProt P42566: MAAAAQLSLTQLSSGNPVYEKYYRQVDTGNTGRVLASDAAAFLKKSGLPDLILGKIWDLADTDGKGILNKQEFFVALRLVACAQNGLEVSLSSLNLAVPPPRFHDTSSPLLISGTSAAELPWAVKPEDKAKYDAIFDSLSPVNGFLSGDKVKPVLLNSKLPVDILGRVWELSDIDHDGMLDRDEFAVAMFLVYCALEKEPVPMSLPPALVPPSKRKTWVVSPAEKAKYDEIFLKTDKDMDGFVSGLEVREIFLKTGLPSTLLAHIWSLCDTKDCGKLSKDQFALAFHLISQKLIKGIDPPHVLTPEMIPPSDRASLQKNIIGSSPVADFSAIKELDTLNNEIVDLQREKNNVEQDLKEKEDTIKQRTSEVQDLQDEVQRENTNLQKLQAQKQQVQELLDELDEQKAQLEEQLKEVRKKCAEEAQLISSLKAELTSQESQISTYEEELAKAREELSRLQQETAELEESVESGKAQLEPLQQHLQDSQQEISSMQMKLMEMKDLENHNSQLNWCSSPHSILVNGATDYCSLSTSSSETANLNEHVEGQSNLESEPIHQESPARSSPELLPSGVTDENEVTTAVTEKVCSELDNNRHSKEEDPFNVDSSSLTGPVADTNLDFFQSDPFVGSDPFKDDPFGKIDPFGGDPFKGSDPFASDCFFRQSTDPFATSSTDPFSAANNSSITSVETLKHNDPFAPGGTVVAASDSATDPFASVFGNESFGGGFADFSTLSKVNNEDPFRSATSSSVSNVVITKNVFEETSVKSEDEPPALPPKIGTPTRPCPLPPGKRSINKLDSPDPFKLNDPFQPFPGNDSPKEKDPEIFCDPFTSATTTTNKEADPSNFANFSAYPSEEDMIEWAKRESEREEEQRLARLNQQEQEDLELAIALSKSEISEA
UniProt Q92979: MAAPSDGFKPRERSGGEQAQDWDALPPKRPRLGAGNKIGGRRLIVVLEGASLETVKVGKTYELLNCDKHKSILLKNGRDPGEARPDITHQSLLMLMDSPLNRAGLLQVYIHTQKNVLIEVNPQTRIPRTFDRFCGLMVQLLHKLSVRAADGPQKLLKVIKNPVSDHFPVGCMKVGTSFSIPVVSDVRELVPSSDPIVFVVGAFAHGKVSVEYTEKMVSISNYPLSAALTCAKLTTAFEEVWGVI
UniProt Q52LR7, whole entry, looked up: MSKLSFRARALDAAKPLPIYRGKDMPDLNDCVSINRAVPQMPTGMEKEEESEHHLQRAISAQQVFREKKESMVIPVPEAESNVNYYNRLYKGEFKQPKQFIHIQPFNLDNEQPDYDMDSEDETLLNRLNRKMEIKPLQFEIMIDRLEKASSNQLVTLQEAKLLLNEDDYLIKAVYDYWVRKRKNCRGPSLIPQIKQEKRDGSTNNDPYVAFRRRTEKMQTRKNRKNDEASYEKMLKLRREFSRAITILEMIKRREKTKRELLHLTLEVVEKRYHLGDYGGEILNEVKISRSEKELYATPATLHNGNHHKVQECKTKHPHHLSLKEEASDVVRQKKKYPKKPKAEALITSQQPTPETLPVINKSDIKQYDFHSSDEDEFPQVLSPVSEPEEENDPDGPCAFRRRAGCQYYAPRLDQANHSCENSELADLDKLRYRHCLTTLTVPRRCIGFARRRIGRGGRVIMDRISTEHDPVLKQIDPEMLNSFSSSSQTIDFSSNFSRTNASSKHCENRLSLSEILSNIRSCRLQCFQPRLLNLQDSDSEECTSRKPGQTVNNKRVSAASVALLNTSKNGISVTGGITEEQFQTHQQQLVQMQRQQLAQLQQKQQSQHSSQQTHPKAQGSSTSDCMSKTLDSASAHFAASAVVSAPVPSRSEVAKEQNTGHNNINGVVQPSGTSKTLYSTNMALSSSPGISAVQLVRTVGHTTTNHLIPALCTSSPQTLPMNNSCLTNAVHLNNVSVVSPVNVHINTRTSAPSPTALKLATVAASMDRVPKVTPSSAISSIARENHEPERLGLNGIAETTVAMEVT
UniProt P19419: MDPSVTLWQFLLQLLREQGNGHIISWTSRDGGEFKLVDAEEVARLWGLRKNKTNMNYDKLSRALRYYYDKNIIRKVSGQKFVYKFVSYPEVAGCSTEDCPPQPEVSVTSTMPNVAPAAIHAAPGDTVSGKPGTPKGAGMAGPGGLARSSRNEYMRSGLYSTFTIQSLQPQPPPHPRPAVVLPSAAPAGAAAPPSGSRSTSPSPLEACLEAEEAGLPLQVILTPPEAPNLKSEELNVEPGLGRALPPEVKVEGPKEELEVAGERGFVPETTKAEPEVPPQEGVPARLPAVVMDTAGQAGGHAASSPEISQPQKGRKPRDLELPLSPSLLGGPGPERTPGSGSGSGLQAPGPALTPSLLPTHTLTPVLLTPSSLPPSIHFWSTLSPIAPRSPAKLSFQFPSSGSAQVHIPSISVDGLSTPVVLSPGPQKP
UniProt Q32P44: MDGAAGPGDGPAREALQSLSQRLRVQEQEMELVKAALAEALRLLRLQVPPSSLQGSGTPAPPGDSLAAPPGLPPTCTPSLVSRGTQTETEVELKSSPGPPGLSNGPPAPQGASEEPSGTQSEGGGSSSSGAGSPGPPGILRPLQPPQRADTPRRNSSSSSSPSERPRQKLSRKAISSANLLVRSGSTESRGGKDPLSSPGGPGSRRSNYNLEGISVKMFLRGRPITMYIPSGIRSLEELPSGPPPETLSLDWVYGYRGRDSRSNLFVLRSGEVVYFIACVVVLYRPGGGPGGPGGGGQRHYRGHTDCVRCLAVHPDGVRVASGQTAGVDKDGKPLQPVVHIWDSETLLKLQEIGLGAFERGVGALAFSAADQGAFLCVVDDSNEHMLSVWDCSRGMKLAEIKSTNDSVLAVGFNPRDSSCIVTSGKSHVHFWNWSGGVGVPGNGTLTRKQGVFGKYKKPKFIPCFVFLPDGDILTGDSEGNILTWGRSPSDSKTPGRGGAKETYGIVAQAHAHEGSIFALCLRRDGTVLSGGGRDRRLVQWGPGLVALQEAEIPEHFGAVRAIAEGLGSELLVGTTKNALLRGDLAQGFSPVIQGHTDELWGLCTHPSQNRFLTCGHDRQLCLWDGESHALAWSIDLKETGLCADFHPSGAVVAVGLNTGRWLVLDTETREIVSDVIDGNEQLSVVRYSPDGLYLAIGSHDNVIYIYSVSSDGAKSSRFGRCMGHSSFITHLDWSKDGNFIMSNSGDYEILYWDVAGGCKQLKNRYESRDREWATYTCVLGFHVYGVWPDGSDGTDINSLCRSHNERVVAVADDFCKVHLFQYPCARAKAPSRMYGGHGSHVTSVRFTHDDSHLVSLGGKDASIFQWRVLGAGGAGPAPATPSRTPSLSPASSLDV
UniProt P49770: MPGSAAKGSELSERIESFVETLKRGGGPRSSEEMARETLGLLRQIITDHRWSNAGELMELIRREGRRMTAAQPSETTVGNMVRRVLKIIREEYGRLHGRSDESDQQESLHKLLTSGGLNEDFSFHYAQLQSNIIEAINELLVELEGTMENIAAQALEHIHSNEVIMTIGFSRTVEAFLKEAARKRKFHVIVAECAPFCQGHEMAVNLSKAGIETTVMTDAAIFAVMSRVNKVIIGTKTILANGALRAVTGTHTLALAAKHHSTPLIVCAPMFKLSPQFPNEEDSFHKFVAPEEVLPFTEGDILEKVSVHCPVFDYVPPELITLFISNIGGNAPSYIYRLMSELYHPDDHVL
UniProt P07992: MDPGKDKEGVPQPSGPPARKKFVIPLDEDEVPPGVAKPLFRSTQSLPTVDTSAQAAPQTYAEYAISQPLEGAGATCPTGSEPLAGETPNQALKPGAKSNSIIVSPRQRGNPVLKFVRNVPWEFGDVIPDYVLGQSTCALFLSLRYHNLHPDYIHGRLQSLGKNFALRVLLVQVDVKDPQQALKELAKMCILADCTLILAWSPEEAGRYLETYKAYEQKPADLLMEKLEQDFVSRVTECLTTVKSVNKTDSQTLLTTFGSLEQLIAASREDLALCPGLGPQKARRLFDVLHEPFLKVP
UniProt O60573: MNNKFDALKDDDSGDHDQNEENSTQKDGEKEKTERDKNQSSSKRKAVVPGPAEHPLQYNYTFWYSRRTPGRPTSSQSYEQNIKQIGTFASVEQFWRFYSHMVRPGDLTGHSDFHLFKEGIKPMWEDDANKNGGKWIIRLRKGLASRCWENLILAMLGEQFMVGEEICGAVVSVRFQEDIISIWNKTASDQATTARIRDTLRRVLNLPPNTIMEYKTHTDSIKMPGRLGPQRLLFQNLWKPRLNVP
UniProt Q13541: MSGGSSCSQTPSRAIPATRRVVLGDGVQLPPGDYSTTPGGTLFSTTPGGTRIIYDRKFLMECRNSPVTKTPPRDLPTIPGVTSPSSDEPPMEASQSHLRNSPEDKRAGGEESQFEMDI
UniProt P26378: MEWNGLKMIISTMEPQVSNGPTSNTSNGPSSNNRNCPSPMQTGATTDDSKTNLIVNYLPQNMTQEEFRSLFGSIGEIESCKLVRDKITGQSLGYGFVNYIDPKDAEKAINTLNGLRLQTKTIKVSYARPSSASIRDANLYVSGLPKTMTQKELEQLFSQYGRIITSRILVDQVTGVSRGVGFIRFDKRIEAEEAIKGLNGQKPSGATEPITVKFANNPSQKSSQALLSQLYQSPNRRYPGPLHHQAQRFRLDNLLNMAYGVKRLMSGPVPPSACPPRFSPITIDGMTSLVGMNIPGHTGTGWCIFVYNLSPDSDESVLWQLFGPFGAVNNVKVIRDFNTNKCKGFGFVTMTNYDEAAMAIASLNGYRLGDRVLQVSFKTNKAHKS

[1] = compound: CCCS(=O)(=O)Nc1ccc(F)c(C(=O)c2c[nH]c3ncc(Cl)cc23)c1F
How it was run: as §1

barasertib = compound: CCN(CCCOc1ccc2c(Nc3cc(CC(=O)Nc4cccc(F)c4)[nH]n3)ncnc2c1)CCOP(=O)(O)O [barasertib]
How it was run: as §1

[2] = compound: CC[C@@H]1C(=O)N(C)c2cnc(Nc3ccc(C(=O)NC4CCN(C)CC4)cc3OC)nc2N1C1CCCC1
How it was run: as §1

volasertib = compound: CC[C@@H]1C(=O)N(C)c2cnc(Nc3ccc(C(=O)N[C@H]4CC[C@H](N5CCN(CC6CC6)CC5)CC4)cc3OC)nc2N1C(C)C [volasertib]
How it was run: as §1

[3] = compound: CCn1c(C(=O)N(C2CC2)C2CC2)cc2c3c(ncn3C)c(Nc3cc(C)n(C)n3)nc21
How it was run: as §1

[4] = compound: CCn1cc(-c2ccnc3[nH]c(-c4cccc(CN(C)C)c4)cc23)c(-c2ccc(NC(=O)N(C)C)cc2)n1
How it was run: as §1

[5] = compound: CN1CCC(CNc2ccc3ncc(-c4cccc(OC(F)(F)F)c4)n3n2)CC1
How it was run: as §1

saracatinib = compound: CN1CCN(CCOc2cc(OC3CCOCC3)c3c(Nc4c(Cl)ccc5c4OCO5)ncnc3c2)CC1 [saracatinib]
How it was run: as §1

sotrastaurin = compound: CN1CCN(c2nc(C3=C(c4c[nH]c5ccccc45)C(=O)NC3=O)c3ccccc3n2)CC1 [sotrastaurin]
How it was run: as §1

alvocidib = compound: CN1CC[C@H](c2c(O)cc(O)c3c(=O)cc(-c4ccccc4Cl)oc23)[C@H](O)C1 [alvocidib]
How it was run: as §1

Tubastatin A = compound: CN1CCc2c(c3ccccc3n2Cc2ccc(C(=O)NO)cc2)C1 [Tubastatin A]
How it was run: as §1

[6] = compound: CNC(=O)C1=CC=CC=C1NC2=NC(=NC=C2Cl)NC3=C(C=C(C=C3)N4CCOCC4)OC
How it was run: as §1

defactinib = compound: CNC(=O)c1ccc(Nc2ncc(C(F)(F)F)c(NCc3nccnc3N(C)S(C)(=O)=O)n2)cc1 [defactinib]
How it was run: as §1

[7] = compound: CNc1nc(-c2ccc3c(N)n[nH]c3c2)cc(N2C[C@@H](C(=O)NC3CCCCC3)CC[C@H]2C)n1
How it was run: as §1

encorafenib = compound: COC(=O)N[C@@H](C)CNc1nccc(-c2cn(C(C)C)nc2-c2cc(Cl)cc(NS(C)(=O)=O)c2F)n1 [encorafenib]
How it was run: as §1

[8] = compound: COC(=O)[C@H](CCSC)NC(=O)C1=C(C=C(C=C1)NC[C@H](CS)N)C2=CC=CC=C2
How it was run: as §1

[9] = compound: COc1cc2nc(-c3cc(F)ccc3O)nc(N[C@@H]3CNC[C@H]3C(C)(C)O)c2cc1OC
How it was run: as §1

alisertib = compound: COc1cc(Nc2ncc3c(n2)-c2ccc(Cl)cc2C(c2c(F)cccc2OC)=NC3)ccc1C(=O)O [alisertib]
How it was run: as §1

gefitinib = compound: COc1cc2ncnc(Nc3ccc(F)c(Cl)c3)c2cc1OCCCN1CCOCC1 [gefitinib]
How it was run: as §1

Target	log2 fold change (vemurafenib)	log2 fold change [1]	log2 fold change (barasertib)	log2 fold change [2]	log2 fold change (volasertib)	log2 fold change [3]	log2 fold change [4]	log2 fold change [5]	log2 fold change (saracatinib)	log2 fold change (sotrastaurin)	log2 fold change (alvocidib)	log2 fold change (Tubastatin A)	log2 fold change [6]	log2 fold change (defactinib)	log2 fold change [7]	log2 fold change (encorafenib)	log2 fold change [8]	log2 fold change [9]	log2 fold change (alisertib)	log2 fold change (gefitinib)
ELOVL1 (UniProt Q9BW60)	inactive: 0.003	inactive: 0.026	inactive: 0.046	inactive: 0.119	inactive: -0.067	inactive: 0.081	inactive: 0.03	inactive: 0.005	inactive: -0.055	inactive: -0.011	inactive: 0.017	inactive: -0.052	inactive: -0.073	inactive: 0.083	inactive: -0.079	inactive: -0.038	inactive: 0.001	inactive: 0.032		
ENTPD7 (UniProt Q9NQZ7)	inactive: 0.02	inactive: -0.097		inactive: 0.084	inactive: -0.263		inactive: 0.097	inactive: 0.087			inactive: 0.078			inactive: 0.027		inactive: 0.172	inactive: -0.133	inactive: -0.212	inactive: 0.01	inactive: 0.172
EIF4B (UniProt P23588)	inactive: 0.028	inactive: -0.004	inactive: -0.024	inactive: -0.008	inactive: 0.017	inactive: -0.025	inactive: -0.07	inactive: 0.045	inactive: 0.001	inactive: -0.013	inactive: -0.024	inactive: 0.053	inactive: 0.002	inactive: -0.02	inactive: -0.003	inactive: 0.007	inactive: -0.04	inactive: -0.006	inactive: 0.009	inactive: 0.029
EIF4H isoform 2 (UniProt Q15056)	inactive: -0.394	inactive: 0.102	inactive: 0.011	inactive: 0.151	inactive: 0.005	inactive: 0.227			inactive: 0.008	inactive: -0.008		inactive: 0.046	inactive: 0.233	inactive: 0.294	inactive: -0.045	inactive: -0.112	inactive: -0.082	inactive: -0.045		
EPS15 (UniProt P42566)	inactive: -0.012	inactive: -0.004	inactive: -0.005	inactive: 0.046	inactive: -0.006	inactive: 0.016	inactive: 0.002	inactive: -0.024	inactive: -0.006	inactive: -0.011	inactive: 0.005	inactive: -0.01	inactive: -0.019	inactive: -0.018	inactive: -0.034	inactive: 0.01	inactive: -0.028	inactive: -0.015	inactive: 0.01	inactive: 0.001
EMG1 (UniProt Q92979)	inactive: 0.022	inactive: 0.014	inactive: 0	inactive: -0.016	inactive: -0.024	inactive: 0.052	inactive: -0.008	inactive: -0.005	inactive: -0.025	inactive: -0.016	inactive: -0.019	inactive: -0.036	inactive: 0	inactive: -0.02	inactive: -0.011	inactive: -0.026	inactive: 0.042	inactive: -0.006	inactive: 0.001	inactive: -0.017
ERCC6L (UniProt Q2NKX8)	inactive: 0.003	inactive: 0.051	inactive: 0.013	inactive: -0.047	inactive: -0.046	inactive: 0.018	inactive: 0.051	inactive: -0.076	inactive: 0.002	inactive: 0.036	inactive: -0.01	inactive: -0.08	inactive: -0.001	inactive: 0.04	inactive: -0.019	inactive: 0.044	inactive: 0.093	inactive: -0.017	inactive: -0.01	inactive: 0.011
EPC2 (UniProt Q52LR7)	inactive: 0.125	inactive: 0.107	inactive: -0.168	inactive: -0.056	inactive: -0.497				inactive: 0	inactive: 0.016				inactive: -0.042	inactive: 0.059	inactive: -0.028	inactive: 0.078	inactive: 0.02		
ELK1 (UniProt P19419)	inactive: 0.128		inactive: 0.227	inactive: -0.04		inactive: -0.006	inactive: -0.028	inactive: -0.081	inactive: 0.003		inactive: 0.009	inactive: 0.091		inactive: -0.163	inactive: 0.047	inactive: 0.124	inactive: 0.035			
EML3 (UniProt Q32P44)	inactive: -0.068	inactive: 0.025	inactive: 0.005	inactive: -0.017	inactive: -0.035	inactive: -0.003	inactive: -0.016	inactive: -0.005	inactive: -0.009	inactive: -0.016	inactive: -0.038	inactive: -0.002	inactive: -0.001	inactive: 0.01	inactive: 0.017	inactive: 0.025	inactive: 0.039	inactive: 0.004	inactive: 0.011	inactive: 0
EIF2B2 (UniProt P49770)	inactive: -0.063	inactive: 0.03	inactive: 0.016	inactive: -0.089	inactive: -0.004	inactive: 0.023	inactive: 0.029	inactive: -0.055	inactive: 0.012	inactive: 0.026	inactive: 0.004	inactive: -0.061	inactive: 0.014	inactive: -0.013	inactive: -0.063	inactive: 0.036	inactive: -0.066	inactive: 0.02	inactive: 0.025	inactive: 0.01
ERCC1 (UniProt P07992)	inactive: 0.06	inactive: -0.039	inactive: -0.002	inactive: -0.05	inactive: -0.035	inactive: -0.03	inactive: -0.014	inactive: 0.032	inactive: 0.026	inactive: -0.062	inactive: -0.068	inactive: -0.009	inactive: -0.031	inactive: 0.14	inactive: 0.021	inactive: 0.02	inactive: 0.02	inactive: -0.016	inactive: 0.085	inactive: 0.064
ERBIN isoform 8 (UniProt Q96RT1)	inactive: 0.038	inactive: 0.015	inactive: -0.004	inactive: 0.068	inactive: -0.013	active: 0.338	inactive: -0.028	inactive: 0.1	inactive: -0.001	inactive: 0.032	inactive: -0.01	inactive: 0.031	inactive: 0.025	inactive: -0.031	inactive: -0.028	inactive: 0.013	inactive: -0.029	inactive: -0.001	inactive: -0.028	inactive: 0.03
EIF4E2 (UniProt O60573)	inactive: 0.038	inactive: 0.004	inactive: 0.009	inactive: -0.035	inactive: -0.008	inactive: 0.031	inactive: -0.062	inactive: -0.017	inactive: 0.061	inactive: 0.007	inactive: -0.051	inactive: -0.182	inactive: 0.037	inactive: 0.025	inactive: -0.028	inactive: 0.104	inactive: -0.014	inactive: 0.025	inactive: 0.055	inactive: -0.05
EIF4EBP1 (UniProt Q13541)	inactive: -0.048	inactive: -0.02	inactive: 0.114	inactive: -0.004	inactive: 0.048	inactive: -0.055	inactive: -0.001	inactive: -0.122	inactive: -0.026	inactive: 0.047	inactive: 0.101	inactive: 0.12	inactive: 0.046	inactive: 0.079	inactive: 0.029	inactive: 0.023	inactive: -0.005	inactive: -0.005	inactive: 0.065	inactive: -0.054
EIF2B4 (UniProt Q9UI10)	inactive: -0.064	inactive: 0.026	inactive: 0.006	inactive: 0.04	inactive: -0.032	inactive: 0.048			inactive: 0.042	inactive: 0.047		inactive: 0.006	inactive: -0.004	inactive: 0.03	inactive: -0.058	inactive: 0.114	inactive: -0.1	inactive: -0.008	inactive: -0.039	inactive: 0.074
ELAVL4 (UniProt P26378)	inactive: -0.045	inactive: 0.035		inactive: -0.119	inactive: -0.038	inactive: 0.054	inactive: -0.006	inactive: 0.029	inactive: -0.052	inactive: 0	inactive: 0.019	inactive: -0.125	inactive: 0.036	inactive: -0.007	inactive: -0.003	inactive: 0.003	inactive: 0.211	inactive: -0.031	inactive: 0.136	inactive: 0.056

As a working copy, some entries already given.
Target	log2 fold change (vemurafenib)	log2 fold change [1]	log2 fold change (barasertib)	log2 fold change [2]	log2 fold change (volasertib)	log2 fold change [3]	log2 fold change [4]	log2 fold change [5]	log2 fold change (saracatinib)	log2 fold change (sotrastaurin)	log2 fold change (alvocidib)	log2 fold change (Tubastatin A)	log2 fold change [6]	log2 fold change (defactinib)	log2 fold change [7]	log2 fold change (encorafenib)	log2 fold change [8]	log2 fold change [9]	log2 fold change (alisertib)	log2 fold change (gefitinib)
EMG1 (UniProt Q92979)	inactive: 0.022	inactive: 0.014	inactive: 0	inactive: -0.016	inactive: -0.024	inactive: 0.052	inactive: -0.008	inactive: -0.005	inactive: -0.025	inactive: -0.016	inactive: -0.019	inactive: -0.036	inactive: 0	inactive: -0.02	inactive: -0.011	inactive: -0.026	inactive: 0.042	inactive: -0.006	inactive: 0.001	inactive: -0.017
ERCC6L (UniProt Q2NKX8)	inactive: 0.003	inactive: 0.051	inactive: 0.013	inactive: -0.047	inactive: -0.046	inactive: 0.018	inactive: 0.051	inactive: -0.076	inactive: 0.002	inactive: 0.036	inactive: -0.01	inactive: -0.08	inactive: -0.001	inactive: 0.04	inactive: -0.019	inactive: 0.044	inactive: 0.093	inactive: -0.017	inactive: -0.01	inactive: 0.011
EPC2 (UniProt Q52LR7)	inactive: 0.125	inactive: 0.107	inactive: -0.168	inactive: -0.056	inactive: -0.497				inactive: 0	inactive: 0.016				inactive: -0.042	inactive: 0.059	inactive: -0.028	inactive: 0.078	inactive: 0.02		

From the supplement of paper PMC10849652
